Source: PubChem BioAssay AID1159584 (Peter MacCallum Cancer Centre, 2016)

Purpose: 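Knock-downs that harm CDH1-null cells more than parental MCF10A cells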 (primary screen)
System: human MCF10A breast epithelial cells, parental and CDH1-null
Reagent: siRNA against human genes
Detection: 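Cell viability by CellTiter-Glo ATP luminescence, each line scaled to the mean of mock wells across plates, then CDH1-null over parental ratio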
Direction: CDH1-null / parental viability ratio: higher = CDH1-null cells survive relatively better than parental
Here is a random part of about 18,000 reagents tested. Not all columns of the deposit are shown. Not stated in the record: the amount of reagent, the time to read-out.

SLC66A1 (GeneID 54896): CDH1-null / parental viability ratio = 1.16
CAMTA2 (GeneID 23125): CDH1-null / parental viability ratio = 1.17
APOA4 (GeneID 337): CDH1-null / parental viability ratio = 1.22
FARSA (GeneID 2193): CDH1-null / parental viability ratio = 0.91
SLC61A1 (GeneID 84975): CDH1-null / parental viability ratio = 0.9
TRIM47 (GeneID 91107): CDH1-null / parental viability ratio = 1.13
PLBD2 (GeneID 196463): CDH1-null / parental viability ratio = 0.9
SPINK13 (GeneID 153218): CDH1-null / parental viability ratio = 0.74
FES (GeneID 2242): CDH1-null / parental viability ratio = 0.71
MMP3 (GeneID 4314): CDH1-null / parental viability ratio = 1
BNC1 (GeneID 646): CDH1-null / parental viability ratio = 1.05
ZBTB33 (GeneID 10009): CDH1-null / parental viability ratio = 1.07

Entries listed so far whose target name begins with S or s (3):
SLC66A1 (GeneID 54896): CDH1-null / parental viability ratio = 1.16
SLC61A1 (GeneID 84975): CDH1-null / parental viability ratio = 0.9
SPINK13 (GeneID 153218): CDH1-null / parental viability ratio = 0.74

Additional entries follow:
BPIFA2 (GeneID 140683): CDH1-null / parental viability ratio = 0.69
C1orf74 (GeneID 148304): CDH1-null / parental viability ratio = 1.49
NOP58 (GeneID 51602): CDH1-null / parental viability ratio = 1.09
AFF1 (GeneID 4299): CDH1-null / parental viability ratio = 0.82
USP35 (GeneID 57558): CDH1-null / parental viability ratio = 1.09
APOOL (GeneID 139322): CDH1-null / parental viability ratio = 1.14
CTSA (GeneID 5476): CDH1-null / parental viability ratio = 1.43
ASIC4 (GeneID 55515): CDH1-null / parental viability ratio = 1.8
ZNF560 (GeneID 147741): CDH1-null / parental viability ratio = 1.16
PIANP (GeneID 196500): CDH1-null / parental viability ratio = 0.79
MAPT (GeneID 4137): CDH1-null / parental viability ratio = 0.81
MACROH2A1 (GeneID 9555): CDH1-null / parental viability ratio = 1.29
